Measurements as given in US12577278B2, “KRAS G12V mutant binds to JAK1, inhibitors, pharmaceutical compositions, and methods related thereto” (Emory University, priority 2019, dated 2026).
At least one compound was matched to its structure with a doubt left.

Experiments:
[1] = test system: KRAS isogenic cell lines SW48, LIM1215, H838; assay: IFNγ-induced cell death in KRAS-WT and G12V isogenic cells; assay type: cell-based; settings: FIG. 4B
Source text: Bar graphs show the cell death of three pairs of KRAS isogenic cell lines SW48, LIM1215, H838 under different treatment conditions.
Bar graphs show cell death in three KRAS isogenic G12V cell lines in response to IFNγ stimulation and 8-mer peptide, with or without treatment with a JAK1 inhibitor or an IFNγ-receptor antagonist.

[2] = test system: KRAS isogenic cell lines SW48, LIM1215, H838; assay: NK92 cell-induced death of KRAS-WT and G12V isogenic cells; assay type: cell-based; settings: FIG. 4D
Source text: Dose-dependent killing curves of RasKi/8-mer peptide are shown for KRAS WT and G12V isogenic SW48, LIM1215, H838 cell lines with or without NK92 cell stimulation from cell viability readouts.
RasKi dose-dependent cell death curves were established for KRAS isogenic cell lines treated with JAK1 inhibitor or IFNγ-receptor antagonist in response to NK92 cell stimulation. Bar graphs show integrated results from area under curve (AUC) data of each treatment condition.

`N#CC[C@H](C1CCCC1)n1cc(-c2ncnc3[nH]ccc23)cn1` [ruxolitinib, reference compound] was tested, and the “effect on RasKi-induced enhancement of KRAS-G12V cell killing triggered by IFNγ” value [1] was “abolished” and the “effect on RasKi-induced enhancement of KRAS-G12V cell killing triggered by NK92 cells” value [2] was “abolished”.
